Binding data for one substance are collected here from patent US20160186156A1.

Amino acid sequences for entries named in this document (tags omitted). A change or cut given only in a name is not applied to a line headed by its entry.
UniProt Q06851: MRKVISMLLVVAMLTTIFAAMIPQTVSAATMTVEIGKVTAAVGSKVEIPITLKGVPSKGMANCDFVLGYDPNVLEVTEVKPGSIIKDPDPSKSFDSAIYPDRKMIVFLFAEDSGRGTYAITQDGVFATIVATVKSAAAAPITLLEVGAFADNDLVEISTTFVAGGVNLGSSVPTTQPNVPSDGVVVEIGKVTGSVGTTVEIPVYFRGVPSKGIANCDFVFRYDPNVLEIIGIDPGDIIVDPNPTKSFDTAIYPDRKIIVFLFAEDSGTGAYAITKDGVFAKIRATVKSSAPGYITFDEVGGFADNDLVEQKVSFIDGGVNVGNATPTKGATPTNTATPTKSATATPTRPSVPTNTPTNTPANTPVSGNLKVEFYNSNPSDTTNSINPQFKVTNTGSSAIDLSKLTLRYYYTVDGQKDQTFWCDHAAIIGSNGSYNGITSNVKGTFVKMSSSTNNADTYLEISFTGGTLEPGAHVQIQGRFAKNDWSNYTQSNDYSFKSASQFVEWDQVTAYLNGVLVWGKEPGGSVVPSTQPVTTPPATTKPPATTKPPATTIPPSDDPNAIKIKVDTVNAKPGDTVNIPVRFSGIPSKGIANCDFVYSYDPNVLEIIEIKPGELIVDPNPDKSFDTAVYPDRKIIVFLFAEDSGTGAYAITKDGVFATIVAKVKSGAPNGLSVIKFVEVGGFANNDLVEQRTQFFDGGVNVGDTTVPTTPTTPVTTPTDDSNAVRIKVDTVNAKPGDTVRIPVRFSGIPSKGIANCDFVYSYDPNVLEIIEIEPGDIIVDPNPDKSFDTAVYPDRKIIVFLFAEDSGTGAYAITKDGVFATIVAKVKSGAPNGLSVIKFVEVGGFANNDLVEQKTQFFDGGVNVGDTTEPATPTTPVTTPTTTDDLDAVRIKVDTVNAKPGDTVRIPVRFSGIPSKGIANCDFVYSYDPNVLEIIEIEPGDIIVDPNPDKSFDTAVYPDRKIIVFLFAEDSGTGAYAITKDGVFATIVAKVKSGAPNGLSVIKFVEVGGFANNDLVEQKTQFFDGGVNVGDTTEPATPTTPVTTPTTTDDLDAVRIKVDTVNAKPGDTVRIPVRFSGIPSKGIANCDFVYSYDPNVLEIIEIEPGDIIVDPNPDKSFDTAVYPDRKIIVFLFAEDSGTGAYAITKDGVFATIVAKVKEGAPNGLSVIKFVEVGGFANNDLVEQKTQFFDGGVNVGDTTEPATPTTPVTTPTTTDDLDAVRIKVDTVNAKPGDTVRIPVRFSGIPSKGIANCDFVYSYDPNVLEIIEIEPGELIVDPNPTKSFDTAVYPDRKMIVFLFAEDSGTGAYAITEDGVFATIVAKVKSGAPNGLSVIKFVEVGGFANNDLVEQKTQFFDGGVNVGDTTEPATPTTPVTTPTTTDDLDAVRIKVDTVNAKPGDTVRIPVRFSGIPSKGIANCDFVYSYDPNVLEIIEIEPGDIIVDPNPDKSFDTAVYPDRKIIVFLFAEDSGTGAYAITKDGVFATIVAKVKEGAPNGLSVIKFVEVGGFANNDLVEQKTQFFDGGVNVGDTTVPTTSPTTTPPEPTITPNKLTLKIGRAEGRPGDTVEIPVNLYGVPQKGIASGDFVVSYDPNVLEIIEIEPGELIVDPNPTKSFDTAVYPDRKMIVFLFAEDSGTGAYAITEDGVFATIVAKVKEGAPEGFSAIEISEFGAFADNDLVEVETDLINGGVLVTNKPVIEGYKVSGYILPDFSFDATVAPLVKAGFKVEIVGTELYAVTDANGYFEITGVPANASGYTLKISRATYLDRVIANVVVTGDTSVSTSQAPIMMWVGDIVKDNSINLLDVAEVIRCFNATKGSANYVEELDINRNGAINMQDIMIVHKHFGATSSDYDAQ

The target in this assay is T1, exoglucanase Cel48S from C. thermocellum together with its native dockerin.
T1 sequence: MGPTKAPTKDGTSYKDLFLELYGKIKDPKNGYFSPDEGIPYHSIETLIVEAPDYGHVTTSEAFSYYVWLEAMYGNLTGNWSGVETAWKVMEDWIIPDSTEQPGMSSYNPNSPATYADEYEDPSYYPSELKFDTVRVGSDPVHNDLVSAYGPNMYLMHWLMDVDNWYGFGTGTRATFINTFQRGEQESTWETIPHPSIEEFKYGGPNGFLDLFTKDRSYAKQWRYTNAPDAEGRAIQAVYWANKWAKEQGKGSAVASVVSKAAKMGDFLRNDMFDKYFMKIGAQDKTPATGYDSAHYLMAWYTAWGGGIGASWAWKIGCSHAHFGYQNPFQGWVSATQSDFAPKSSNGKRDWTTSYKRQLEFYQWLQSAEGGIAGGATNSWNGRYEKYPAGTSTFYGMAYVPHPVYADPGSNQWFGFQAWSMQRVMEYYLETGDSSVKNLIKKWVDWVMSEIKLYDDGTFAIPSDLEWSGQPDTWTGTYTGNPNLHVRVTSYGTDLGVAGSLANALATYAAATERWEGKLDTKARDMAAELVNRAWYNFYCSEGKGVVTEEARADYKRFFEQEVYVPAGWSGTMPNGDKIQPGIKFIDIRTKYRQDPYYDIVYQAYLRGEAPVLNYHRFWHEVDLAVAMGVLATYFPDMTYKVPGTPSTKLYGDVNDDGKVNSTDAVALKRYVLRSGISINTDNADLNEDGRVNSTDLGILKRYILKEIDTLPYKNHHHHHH
The assay is described as follows: affinity-based ELISA; enzyme coated on the plate, CBM-cohesin at 0.1-1000 ng/ul, detected with anti-CBM antibody. For orientation: An ELISA detects its analyte on a solid surface through an enzyme-linked reagent.

Results are given in words; binding and its absence hold for the method and conditions named. Some binding calls cover weakened binding; strength is not graded here. Tags and fused reporters may be left off the sequences shown.

With “CBM-CohCt A2 (from UniProt Q06851 361-1677)”, the binding result is given as “binds”.
